# Test results taken from the supplement of paper PMC8728848.
# This is one part of the list.
# B1: Mermaid2 (Stilbonema majum) (protein)
# chain: MGSSHHHHHHSSGLVPRGSHMAASGWLRSPQGTVVKLYRRSLSWSKADEFCKDVDGRLVVDRTADMHLFLIKNVLKEKKSRVWVGLRRTAPHSRTWIWSDGTRQNEDDLNTNLWLRDEPNDAAGEEECALFMYSPWEKAWGLNDYLCRGGCRSYQFICEKGIR
# Columns and labels:
# Test in all cases: glycan array binding signal (z-score within array); higher = stronger binding
# Settings in all cases: glycan notation: IUPAC condensed, linker removed
# Fuc(a1-2)Gal = target: Fuc(a1-2)Gal
# Outline: (§1)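 Columns mapping to the same glycan were averaged after glycan names were converted to IUPAC-condensed notation. The data come from 3228 arrays in the Consortium for Functional Glycomics database, limited to those with an available protein sequence. Binding is reported as a within-array Z-score averaged across arrays of one protein sequence and across linkers.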
# Fuc(a1-2)Gal(b1-3)GalNAc = target: Fuc(a1-2)Gal(b1-3)GalNAc
# Outline: as §1
# [1] = target: Fuc(a1-2)Gal(b1-3)GalNAc(a1-3)[Fuc(a1-2)]Gal(b1-4)Glc
# Outline: as §1
# [2] = target: Fuc(a1-2)Gal(b1-3)GalNAc(a1-3)[Fuc(a1-2)]Gal(b1-4)GlcNAc
# Outline: as §1
# [3] = target: Fuc(a1-2)Gal(b1-3)GalNAc(b1-3)Gal
# Outline: as §1
# [4] = target: Fuc(a1-2)Gal(b1-3)GalNAc(b1-3)Gal(a1-4)Gal(b1-4)Glc
# Outline: as §1
# [5] = target: Fuc(a1-2)Gal(b1-3)GalNAc(b1-4)[Neu5Ac(a2-3)]Gal(b1-4)Glc
# Outline: as §1
# Fuc(a1-2)Gal(b1-3)GlcNAc = target: Fuc(a1-2)Gal(b1-3)GlcNAc
# Outline: as §1
# [6] = target: Fuc(a1-2)Gal(b1-3)GlcNAc(b1-2)Man(a1-3)[Fuc(a1-2)Gal(b1-3)GlcNAc(b1-2)Man(a1-6)]Man(b1-4)GlcNAc(b1-4)GlcNAc
# Outline: as §1
# [7] = target: Fuc(a1-2)Gal(b1-3)GlcNAc(b1-2)Man(a1-3)[Fuc(a1-2)Gal(b1-3)GlcNAc(b1-2)Man(a1-6)]Man(b1-4)GlcNAc(b1-4)[Fuc(a1-6)]GlcNAc
# Outline: as §1
# [8] = target: Fuc(a1-2)Gal(b1-3)GlcNAc(b1-3)Gal(b1-4)Glc
# Outline: as §1
# [9] = target: Fuc(a1-2)Gal(b1-3)GlcNAc(b1-3)GalNAc
# Outline: as §1
# [10] = target: Fuc(a1-2)Gal(b1-3)GlcNAc(b1-3)[Fuc(a1-2)Gal(b1-3)GlcNAc(b1-6)]GalNAc
# Outline: as §1
# [11] = target: Fuc(a1-2)Gal(b1-3)GlcNAc(b1-3)[Gal(b1-4)GlcNAc(b1-6)]Gal(b1-4)Glc
# Outline: as §1
# [12] = target: Fuc(a1-2)Gal(b1-3)GlcNAc(b1-3)[Neu5Ac(a2-6)Gal(b1-4)GlcNAc(b1-6)]Gal(b1-4)Glc
# Outline: as §1
# [13] = target: Fuc(a1-2)Gal(b1-3)GlcNAc6S
# Outline: as §1
# [14] = target: Fuc(a1-2)Gal(b1-3)[Fuc(a1-4)]GlcNAc
# Outline: as §1
# [15] = target: Fuc(a1-2)Gal(b1-3)[Fuc(a1-4)]GlcNAc(b1-2)Man(a1-3)[Fuc(a1-2)Gal(b1-3)[Fuc(a1-4)]GlcNAc(b1-2)Man(a1-3)]Man(b1-4)GlcNAc(b1-4)GlcNAc
# Outline: as §1
# [16] = target: Fuc(a1-2)Gal(b1-3)[Fuc(a1-4)]GlcNAc(b1-2)Man(a1-3)[Fuc(a1-2)Gal(b1-3)[Fuc(a1-4)]GlcNAc(b1-2)Man(a1-6)]Man(b1-4)GlcNAc(b1-4)[Fuc(a1-6)]GlcNAc(b1-4)[Fuc(a1-6)]GlcNAc
# Outline: as §1
# [17] = target: Fuc(a1-2)Gal(b1-3)[Fuc(a1-4)]GlcNAc(b1-3)[Fuc(a1-3)[Gal(b1-4)]GlcNAc(b1-6)]Gal(b1-4)Glc
# Outline: as §1
# [18] = target: Fuc(a1-2)Gal(b1-3)[Fuc(a1-4)]GlcNAc(b1-3)[Gal(b1-4)GlcNAc(b1-6)]Gal(b1-4)Glc
# Outline: as §1
# Fuc(a1-2)Gal(b1-4)Glc = target: Fuc(a1-2)Gal(b1-4)Glc
# Outline: as §1
# Fuc(a1-2)Gal(b1-4)Glc6S = target: Fuc(a1-2)Gal(b1-4)Glc6S
# Outline: as §1
# Fuc(a1-2)Gal(b1-4)GlcNAc = target: Fuc(a1-2)Gal(b1-4)GlcNAc
# Outline: as §1
# [19] = target: Fuc(a1-2)Gal(b1-4)GlcNAc(b1-2)Man
# Outline: as §1
# [20] = target: Fuc(a1-2)Gal(b1-4)GlcNAc(b1-2)Man(a1-3)[Fuc(a1-2)Gal(b1-4)GlcNAc(b1-2)Man(a1-6)]Man(b1-4)GlcNAc(b1-4)GlcNAc
# Outline: as §1
# [21] = target: Fuc(a1-2)Gal(b1-4)GlcNAc(b1-2)Man(a1-3)[Fuc(a1-2)Gal(b1-4)GlcNAc(b1-2)Man(a1-6)]Man(b1-4)GlcNAc(b1-4)[Fuc(a1-6)]GlcNAc
# Outline: as §1
# [22] = target: Fuc(a1-2)Gal(b1-4)GlcNAc(b1-2)[Fuc(a1-2)Gal(b1-4)GlcNAc(b1-4)]Man(a1-3)[Fuc(a1-2)Gal(b1-4)GlcNAc(b1-2)Man(a1-6)]Man(b1-4)GlcNAc(b1-4)GlcNAc
# Outline: as §1
# [23] = target: Fuc(a1-2)Gal(b1-4)GlcNAc(b1-3)Gal(b1-4)GlcNAc
# Outline: as §1
# [24] = target: Fuc(a1-2)Gal(b1-4)GlcNAc(b1-3)Gal(b1-4)GlcNAc(b1-2)Man(a1-3)[Fuc(a1-2)Gal(b1-4)GlcNAc(b1-3)Gal(b1-4)GlcNAc(b1-2)Man(a1-6)]Man(b1-4)GlcNAc(b1-4)GlcNAc
# Outline: as §1
# [25] = target: Fuc(a1-2)Gal(b1-4)GlcNAc(b1-3)Gal(b1-4)GlcNAc(b1-3)Gal(b1-4)GlcNAc
# Outline: as §1
# [26] = target: Fuc(a1-2)Gal(b1-4)GlcNAc(b1-3)GalNAc
# Outline: as §1
# [27] = target: Fuc(a1-2)Gal(b1-4)GlcNAc(b1-3)[Fuc(a1-2)Gal(b1-4)GlcNAc(b1-6)]GalNAc
# Outline: as §1
# [28] = target: Fuc(a1-2)Gal(b1-4)GlcNAc(b1-3)[Fuc(a1-3)[Gal(b1-4)]GlcNAc(b1-6)]Gal(b1-4)Glc
# Outline: as §1
# [29] = target: Fuc(a1-2)Gal(b1-4)GlcNAc(b1-6)GalNAc
# Outline: as §1
# [30] = target: Fuc(a1-2)Gal(b1-4)GlcNAc6S
# Outline: as §1
# [31] = target: Fuc(a1-2)Gal(b1-4)[Fuc(a1-3)]GlcNAc
# Outline: as §1
# [32] = target: Fuc(a1-2)Gal(b1-4)[Fuc(a1-3)]GlcNAc(b1-2)Man(a1-3)[Fuc(a1-2)Gal(b1-4)[Fuc(a1-3)]GlcNAc(b1-2)Man(a1-6)]Man(b1-4)GlcNAc(b1-4)[Fuc(a1-6)]GlcNAc
# Outline: as §1
# [33] = target: Fuc(a1-2)Gal(b1-4)[Fuc(a1-3)]GlcNAc(b1-2)[Fuc(a1-2)Gal(b1-4)[Fuc(a1-3)]GlcNAc(b1-4)]Man(a1-3)[Fuc(a1-2)Gal(b1-4)[Fuc(a1-3)]GlcNAc(b1-2)Man(a1-6)]Man(b1-4)GlcNAc(b1-4)GlcNAc
# Outline: as §1
# [34] = target: Fuc(a1-2)Gal(b1-4)[Fuc(a1-3)]GlcNAc(b1-3)Gal(b1-4)[Fuc(a1-3)]GlcNAc
# Outline: as §1
# [35] = target: Fuc(a1-2)Gal(b1-4)[Fuc(a1-3)]GlcNAc(b1-3)Gal(b1-4)[Fuc(a1-3)]GlcNAc(b1-3)Gal(b1-4)[Fuc(a1-3)]GlcNAc
# Outline: as §1
# [36] = target: Fuc(a1-2)Gal(b1-4)[Fuc(a1-3)]GlcNAc(b1-3)GalNAc
# Outline: as §1
# [37] = target: Fuc(a1-2)Gal(b1-4)[Fuc(a1-3)]GlcNAc(b1-3)[Neu5Ac(a2-6)Gal(b1-4)GlcNAc(b1-6)]Gal(b1-4)Glc
# Outline: as §1
# [38] = target: Fuc(a1-2)Gal3S(b1-4)GlcNAc
# Outline: as §1
# [39] = target: Fuc(a1-2)Gal6S(b1-3)GlcNAc
# Outline: as §1
binder,measurement,setting,value
B1,glycan array binding signal (z-score),Fuc(a1-2)Gal,2.43
same,glycan array binding signal (z-score),Fuc(a1-2)Gal(b1-3)GalNAc,-0.4
same,glycan array binding signal (z-score),[1],-0.659
same,glycan array binding signal (z-score),[2],-0.899
same,glycan array binding signal (z-score),[3],-0.276
same,glycan array binding signal (z-score),[4],-0.142
same,glycan array binding signal (z-score),[5],-0.772
same,glycan array binding signal (z-score),Fuc(a1-2)Gal(b1-3)GlcNAc,-0.762
same,glycan array binding signal (z-score),[6],1.62
same,glycan array binding signal (z-score),[7],-0.612
same,glycan array binding signal (z-score),[8],-0.74
same,glycan array binding signal (z-score),[9],-0.392
same,glycan array binding signal (z-score),[10],0.539
same,glycan array binding signal (z-score),[11],-0.927
same,glycan array binding signal (z-score),[12],0.333
same,glycan array binding signal (z-score),[13],-0.05
same,glycan array binding signal (z-score),[14],-0.743
same,glycan array binding signal (z-score),[15],-0.446
same,glycan array binding signal (z-score),[16],-0.681
same,glycan array binding signal (z-score),[17],-0.697
same,glycan array binding signal (z-score),[18],-0.432
same,glycan array binding signal (z-score),Fuc(a1-2)Gal(b1-4)Glc,-0.355
same,glycan array binding signal (z-score),Fuc(a1-2)Gal(b1-4)Glc6S,-0.331
same,glycan array binding signal (z-score),Fuc(a1-2)Gal(b1-4)GlcNAc,-0.425
same,glycan array binding signal (z-score),[19],1.76
same,glycan array binding signal (z-score),[20],-0.02
same,glycan array binding signal (z-score),[21],1.08
same,glycan array binding signal (z-score),[22],-0.379
same,glycan array binding signal (z-score),[23],-0.575
same,glycan array binding signal (z-score),[24],1.13
same,glycan array binding signal (z-score),[25],-0.772
same,glycan array binding signal (z-score),[26],0.031
same,glycan array binding signal (z-score),[27],0.788
same,glycan array binding signal (z-score),[28],-0.376
same,glycan array binding signal (z-score),[29],-0.181
same,glycan array binding signal (z-score),[30],0.035
same,glycan array binding signal (z-score),[31],0.558
same,glycan array binding signal (z-score),[32],0.062
same,glycan array binding signal (z-score),[33],-0.12
same,glycan array binding signal (z-score),[34],-0.77
same,glycan array binding signal (z-score),[35],-0.217
same,glycan array binding signal (z-score),[36],-0.123
same,glycan array binding signal (z-score),[37],-0.749
same,glycan array binding signal (z-score),[38],-0.786
same,glycan array binding signal (z-score),[39],-0.388

# Random excerpt: four records from the list.
binder,measurement,setting,value
B1,glycan array binding signal (z-score),[13],-0.05
same,glycan array binding signal (z-score),[20],-0.02
same,glycan array binding signal (z-score),[37],-0.749
same,glycan array binding signal (z-score),[5],-0.772
